Results are given in words; binding and its absence hold for the method and conditions named. In cells and extracts the contact can be indirect. A yes stands for co-enrichment or nearness to the bait. Other partners may have been found.

By UniProt entry, the sequences of proteins in these tests, tags left out. Residues count along the entry.
UniProt Q99623: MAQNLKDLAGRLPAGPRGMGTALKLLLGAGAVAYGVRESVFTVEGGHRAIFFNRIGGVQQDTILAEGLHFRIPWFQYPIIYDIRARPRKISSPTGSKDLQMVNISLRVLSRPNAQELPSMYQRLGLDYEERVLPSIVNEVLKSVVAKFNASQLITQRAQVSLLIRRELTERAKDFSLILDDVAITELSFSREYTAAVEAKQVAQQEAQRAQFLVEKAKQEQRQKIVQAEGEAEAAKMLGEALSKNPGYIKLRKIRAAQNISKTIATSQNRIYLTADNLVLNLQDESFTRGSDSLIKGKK
UniProt P28331, residues 24-727: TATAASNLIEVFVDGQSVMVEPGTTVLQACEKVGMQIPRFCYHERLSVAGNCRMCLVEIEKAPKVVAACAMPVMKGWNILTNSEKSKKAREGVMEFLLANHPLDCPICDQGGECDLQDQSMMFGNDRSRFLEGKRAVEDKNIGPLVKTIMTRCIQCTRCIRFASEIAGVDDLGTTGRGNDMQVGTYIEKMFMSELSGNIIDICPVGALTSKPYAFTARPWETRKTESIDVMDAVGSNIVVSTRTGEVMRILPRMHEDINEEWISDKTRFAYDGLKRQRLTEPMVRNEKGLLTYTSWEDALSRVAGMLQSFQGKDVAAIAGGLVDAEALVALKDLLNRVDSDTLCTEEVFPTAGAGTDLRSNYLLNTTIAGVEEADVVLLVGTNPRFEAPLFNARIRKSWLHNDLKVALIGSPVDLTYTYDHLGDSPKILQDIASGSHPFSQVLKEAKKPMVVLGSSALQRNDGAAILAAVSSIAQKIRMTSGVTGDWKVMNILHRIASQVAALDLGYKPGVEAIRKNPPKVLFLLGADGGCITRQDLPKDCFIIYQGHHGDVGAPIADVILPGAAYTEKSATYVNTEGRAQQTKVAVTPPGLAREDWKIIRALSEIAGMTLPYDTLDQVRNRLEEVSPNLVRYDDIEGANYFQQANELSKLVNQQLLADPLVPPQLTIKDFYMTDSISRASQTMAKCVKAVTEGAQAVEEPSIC

This note sets out measurements from article PMC9852476.

The target of the assay is Prohibitin 2 (PHB2) (human (endogenous in HCT116 and HT-29)) (UniProt Q99623). The assay can be described thus: affinity purification with mass spectrometry; HCT116 lysates immunoprecipitated with anti-PHB2 antibody (4 ug) or control IgG, gel electrophoresis, Coomassie staining, gel strips analysed by LC-MS/MS.

Take “NADH:ubiquinone oxidoreductase core subunit S1 (NDUFS1) (from UniProt P28331 24-727)”: the binding result is listed as “binds”.
